This note sets out measurements from paper PMC5641590, “An Automated Platform for Assessment of Congenital and Drug-Induced Arrhythmia with hiPSC-Derived Cardiomyocytes” (Frontiers in Physiology, 2017).

Series [1] relates to neonatal rat ventricular CMs. The series is described as follows: VF2.1.Cl AP recording in isolated neonatal rat ventricular CMs. It is filed as cell-based. Conditions: 0.3 μM E-4031; 1 μM acetylcholine; paced 0.3 Hz. How it is done: (§1) Neonatal atrial and ventricular rat cardiomyocytes were isolated with the neonatal rat cardiomyocyte isolation kit (Worthington, New Jersey, USA) (Toraason et al., [1989]; Macgregor et al., [1995]) and cultured at 37°C with 5% CO2. Briefly, heart atria and ventricles were dissected from 1 day old Hsd:Sprague-Dawley rats, then digested overnight at 4°C with trypsin. Digestion continued 12 h later with collagenase for approximately 90 min at 37°C. […] After 24 h, media was changed to low-serum medium (the same as above but substituting 0.25% FCS for 10% horse serum and 5% FCS). Seventy two hours after seeding the cells, they were processed for voltage imaging. All animal handling and care followed the NIH Guide for Care and Use of Laboratory Animals. […] EADs were quantified automatically using the default noise threshold in the whole well cardiac time series algorithm. […] Data tables were analyzed using Microsoft Excel 2013 and dose response curves and heat maps were calculated using GraphPad Prism 7 software. […]

A further series concerns neonatal rat atrial CMs. The series is described as follows: VF2.1.Cl AP recording in isolated neonatal rat atrial CMs. It is filed as cell-based. The note with it: 0.3 μM E-4031; 1 μM acetylcholine; paced 0.3 Hz. How it is done:
as §1

Series [2] deals with normal individual (iCell) hiPSC-CMs.

Take `Cc1cccc(CCN2CCC(C(=O)c3ccc(NS(C)(=O)=O)cc3)CC2)n1` [E-4031]: the “effect on APD” value was “prolonged APD in ventricular CMs” in series [1] and “not atrial CMs” in the series with neonatal rat atrial CMs. Moreover, the “arrhythmia phenotype: APD prolongation, EADs, voltage alternans” value in series [2] is on record as “extensive dose-dependent prolongation of APD, induction of EADs and, at some doses, voltage alternans”.
